Source: the supplement of paper PMC3334620
The full ranking holds about 33,000 sequences; the median of “E-score (-0.5 to 0.5)” is about -0.0014, and the highest 2% start at about 0.25. Some of the results follow.

What follows are sequences tested against T1, Cad1 (UniProt P24813) (assay: PBM E-score (8-mer binding enrichment) (E-score (-0.5 to 0.5)); higher = stronger / more preferred TF binding). Settings: protein concentration: 100 nM; construct: GST-full length.
T1 sequence: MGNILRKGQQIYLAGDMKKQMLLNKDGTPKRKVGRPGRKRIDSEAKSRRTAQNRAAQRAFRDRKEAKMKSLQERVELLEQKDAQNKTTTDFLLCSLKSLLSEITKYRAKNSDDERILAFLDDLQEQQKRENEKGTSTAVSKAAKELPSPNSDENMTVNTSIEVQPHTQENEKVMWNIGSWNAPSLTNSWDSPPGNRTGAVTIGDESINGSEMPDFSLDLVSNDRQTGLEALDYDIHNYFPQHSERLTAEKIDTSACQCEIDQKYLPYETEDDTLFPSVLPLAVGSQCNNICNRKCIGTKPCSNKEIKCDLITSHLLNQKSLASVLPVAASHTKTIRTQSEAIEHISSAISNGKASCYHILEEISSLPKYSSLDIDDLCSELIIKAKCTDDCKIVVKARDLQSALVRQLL
Outline: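 GST-tagged yeast TFs (full-length or DNA-binding domain) were made by PURExpress in vitro transcription/translation and applied at about 100-200 nM to universal all-10-mer Agilent arrays. The arrays were made double-stranded by primer extension, on fresh or once-stripped slides. Bound protein was detected with fluorescent anti-GST, and scans were normalised with masliner. Each ungapped eight-base word, pooled with its reverse complement, received an E-score (modified Wilcoxon-Mann-Whitney statistic) from the Universal PBM Analysis Suite.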

With CGCAGATC as the sequence, how does the “PBM E-score” value read?
The value was 0.098.

For CGACTACG, which “PBM E-score” value is on record?
The value was -0.208.

How did the “PBM E-score” value turn out when CTGATACA was run?
The value was -0.0475.

Which “PBM E-score” value does the source give for AGCCACAC here?
Its value is 0.231.

Which “PBM E-score” value does the source give for AAACTCAT here?
The value was 0.253.

ATACCGTC was tested. Which “PBM E-score” value did it give?
The value was 0.168.

Which “PBM E-score” value does the source give for CATGAGCA here?
Its value is -0.0612.

AAGTCTCC was tested. Which “PBM E-score” value did it give?
The value was -0.0902.

How did the “PBM E-score” value turn out when CAATTGTG was run?
Its value is 0.034.

CTAGACTC was tested. Which “PBM E-score” value did it give?
The value was -0.244.

How did the “PBM E-score” value turn out when ATGCATGA was run?
Its value is 0.23.

AAGCCTAA was tested. Which “PBM E-score” value did it give?
The value was -0.0126.

With ACGCGTCA as the sequence, how does the “PBM E-score” value read?
Its value is 0.198.

Which “PBM E-score” value does the source give for GTCTGACA here?
Its value is 0.186.

Which “PBM E-score” value does the source give for TAGGACGA here?
The value was -0.0633.

CCGACCGC was tested. Which “PBM E-score” value did it give?
Its value is -0.182.

TAACATCA was tested. Which “PBM E-score” value did it give?
Its value is 0.172.

How did the “PBM E-score” value turn out when ACCCAGGG was run?
Its value is -0.314.

How did the “PBM E-score” value turn out when GAATCCGC was run?
The value was 0.0707.

Which “PBM E-score” value does the source give for ACGTGAGC here?
The value was -0.0803.

How did the “PBM E-score” value turn out when AGACCGTG was run?
The value was -0.034.

Which “PBM E-score” value does the source give for GCCTACAC here?
The value was -0.0759.

With CTGCGGGA as the sequence, how does the “PBM E-score” value read?
The value was -0.166.

ATTCGTGG was tested. Which “PBM E-score” value did it give?
Its value is 0.0778.

How did the “PBM E-score” value turn out when AGCTCGCC was run?
The value was -0.0374.

With GTCTTGCA as the sequence, how does the “PBM E-score” value read?
Its value is 0.0216.

Which “PBM E-score” value does the source give for GCATCACA here?
The value was 0.132.

Which “PBM E-score” value does the source give for GCATCGAA here?
The value was -0.11.

AATCTACT was tested. Which “PBM E-score” value did it give?
Its value is 0.156.

For ACAGCTTA, which “PBM E-score” value is on record?
The value was 0.0779.

How did the “PBM E-score” value turn out when CTTGAAGA was run?
Its value is 0.00752.

With CGTAATGA as the sequence, how does the “PBM E-score” value read?
Its value is 0.0114.

With ATAAGGAT as the sequence, how does the “PBM E-score” value read?
The value was 0.0493.

With CGAGGGTA as the sequence, how does the “PBM E-score” value read?
The value was -0.17.

Which “PBM E-score” value does the source give for TAATATGA here?
Its value is 0.133.

With ACTATACA as the sequence, how does the “PBM E-score” value read?
Its value is 0.0466.

For TGATCCAA, which “PBM E-score” value is on record?
Its value is -0.0232.

AAGTACTA was tested. Which “PBM E-score” value did it give?
The value was 0.0986.

How did the “PBM E-score” value turn out when AATGACGT was run?
Its value is -0.0163.

Which “PBM E-score” value does the source give for CATCCGCG here?
Its value is 0.0393.

Which “PBM E-score” value does the source give for ATAGCTAT here?
Its value is -0.0499.

How did the “PBM E-score” value turn out when ATTGCGTA was run?
Its value is 0.179.

For AAGTGGCC, which “PBM E-score” value is on record?
Its value is -0.155.

TATAAAAA was tested. Which “PBM E-score” value did it give?
The value was 0.192.

AGAGGTAG was tested. Which “PBM E-score” value did it give?
The value was -0.158.

Which “PBM E-score” value does the source give for AAGTCATT here?
Its value is -0.0862.

CAATGAGC was tested. Which “PBM E-score” value did it give?
The value was 0.059.

For CGGCGTCC, which “PBM E-score” value is on record?
The value was 0.146.

With CGAGCCCA as the sequence, how does the “PBM E-score” value read?
Its value is -0.146.

With AGTCGCCC as the sequence, how does the “PBM E-score” value read?
The value was -0.269.

ACCGCTAC was tested. Which “PBM E-score” value did it give?
Its value is -0.221.

Which “PBM E-score” value does the source give for AGTCGGAT here?
Its value is -0.0138.

Which “PBM E-score” value does the source give for CGCTATGA here?
The value was 0.119.

For ATGCTAGG, which “PBM E-score” value is on record?
Its value is -0.0466.

How did the “PBM E-score” value turn out when CTCGAGAA was run?
Its value is 0.0677.

With GTAAAACA as the sequence, how does the “PBM E-score” value read?
Its value is -0.0257.

With AGTAGTTA as the sequence, how does the “PBM E-score” value read?
Its value is -0.0271.

Which “PBM E-score” value does the source give for GCTGGTAA here?
The value was -0.0447.

For CGGCATCA, which “PBM E-score” value is on record?
Its value is 0.0303.

For AACCAGCG, which “PBM E-score” value is on record?
The value was 0.0247.

Which “PBM E-score” value does the source give for AGGGATAC here?
The value was -0.1.

Which “PBM E-score” value does the source give for GGTCAACA here?
Its value is 0.212.

With CATTTTGC as the sequence, how does the “PBM E-score” value read?
Its value is 0.143.

CATCAACC was tested. Which “PBM E-score” value did it give?
The value was 0.0881.

For ACAAACAC, which “PBM E-score” value is on record?
Its value is 0.262.

Which “PBM E-score” value does the source give for GTTGCTGA here?
The value was 0.111.

How did the “PBM E-score” value turn out when CCTTTTCC was run?
Its value is -0.216.

How did the “PBM E-score” value turn out when TACGAGCA was run?
The value was -0.137.

Which “PBM E-score” value does the source give for GGAGATGA here?
Its value is 0.0691.

Which “PBM E-score” value does the source give for CGCTACCA here?
The value was -0.193.

Which “PBM E-score” value does the source give for AAACGAAC here?
The value was 0.0751.

With CAACACCA as the sequence, how does the “PBM E-score” value read?
Its value is 0.0834.

Which “PBM E-score” value does the source give for GGTGATGA here?
The value was 0.159.

How did the “PBM E-score” value turn out when ATGAAGCA was run?
Its value is -0.00505.

With ACTTTGAC as the sequence, how does the “PBM E-score” value read?
The value was 0.108.

Which “PBM E-score” value does the source give for TAGTCCCA here?
Its value is -0.0583.

For GATTCCTA, which “PBM E-score” value is on record?
Its value is 0.0143.

How did the “PBM E-score” value turn out when ACTAGAAA was run?
The value was -0.0101.

With AACCCAAC as the sequence, how does the “PBM E-score” value read?
Its value is -0.109.

Which “PBM E-score” value does the source give for AGCAGAAA here?
Its value is 0.164.

With ATGCTCAG as the sequence, how does the “PBM E-score” value read?
Its value is 0.0145.

For AGAGATGA, which “PBM E-score” value is on record?
Its value is -0.0883.

AGCGCATG was tested. Which “PBM E-score” value did it give?
The value was 0.00571.

For CATTAGCG, which “PBM E-score” value is on record?
The value was 0.02.

With CTCAATAC as the sequence, how does the “PBM E-score” value read?
The value was 0.117.

For GTTCATGA, which “PBM E-score” value is on record?
The value was 0.262.
